The whole screen tested about 220,000 compounds, of which about 770 (0.35%) were called active. Inconclusive means that the source gave no clear call. Such entries were picked first, then a sample of the others. No stated cut-off is given here; in the data, active means binding response below about 49% or above about 150%; inconclusive means no clear call, values can overlap the other calls; inactive means in between. Residues, ends and D or L forms follow the SMILES beside them. *: point of attachment. OPac = O=C(CO*)c1ccccc1; Bz = O=C(c1ccccc1)*
target: Guanine nucleotide-binding protein G(o) subunit alpha (Homo sapiens) (UniProt P09471); test: RGS7-Galphao binding modulators, primary screen, biochemical, multiplexed bead flow cytometry (AID 1439); details: at 10 µM, actives lie on both sides;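 further: fluorescent Galphao held in activated GDP-AlF4 state binding bead-coupled RGS7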

By UniProt entry, the sequences of proteins in these tests, tags left out.
UniProt P09471, whole entry, looked up: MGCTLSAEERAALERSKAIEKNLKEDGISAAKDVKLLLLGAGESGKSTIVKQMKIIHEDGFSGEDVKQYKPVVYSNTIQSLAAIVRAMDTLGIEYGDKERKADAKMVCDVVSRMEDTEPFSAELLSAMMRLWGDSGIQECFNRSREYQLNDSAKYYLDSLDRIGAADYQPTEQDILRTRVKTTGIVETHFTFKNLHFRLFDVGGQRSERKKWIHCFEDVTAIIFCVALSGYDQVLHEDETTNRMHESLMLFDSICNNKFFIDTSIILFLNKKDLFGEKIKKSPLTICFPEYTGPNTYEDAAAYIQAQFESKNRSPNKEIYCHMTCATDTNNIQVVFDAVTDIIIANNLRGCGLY

SMILES | binding response (% of control)
CCCCNC(=O)c1cc2cc(CC)ccc2[nH]1 | inconclusive: 122%
CCOC(=O)C1=C(c2ccc(OC)cc2)OC(N)=C(C#N)C1c1cccnc1 (stereo not given) | inconclusive: 114%
O=C(NNc1ccccc1F)c1ccccc1 | inconclusive: 68.9%
CCN(CC)c1ccc(/C=N/N2CCN(Cc3ccccc3Cl)CC2)c(O)c1 | inconclusive: 120%
O=C(N/N=C/c1ccccc1OC(F)F)NC1CCCCC1 | inconclusive: 85.9%
O=C(NCc1ccc(S(=O)(=O)Nc2ccccc2Cl)s1)c1ccccc1 | inconclusive: 79.1%
COc1cccc(C(=O)NNC2=C(C(=O)C(F)(F)F)CCC2)c1 | inconclusive: 44%
C[C@@H]1C=C(C(=O)NCc2nc3ccccc3[nH]2)O[C@H](OCc2ccc(CO)cc2)C1 | inconclusive: 99.1%
Cc1oc(CC(C)C)c(CN)c1C(=O)O | inactive: 97.9%
NC(=O)C(=CNc1nc(-c2ccc(Cl)c(Cl)c2)cs1)C(N)=O | inconclusive: -3.02%
O=C(CN1CCN(c2ccccc2O)CC1)NC(=O)NC1CCCC1 | inactive: 95.2%
OCCN1CCN(CC(O)COCC2COc3ccccc3O2)CC1 (stereo not given) | inconclusive: 98.8%
O=C(NNS(=O)(=O)Cc1ccccc1)c1ccc([N+](=O)[O-])cc1 | inconclusive: 126%
Cc1ccc(CN2CCN(Cc3cnc(C)s3)CC2CCO)cc1 (stereo not given) | inactive: 101%
O=C(CNC(=O)c1ccccc1)NCC(=O)OCC(=O)c1ccccc1 (Bz-Gly-Gly-OPac) | inactive: 113%
COc1ccc(CCN2C(=O)c3cccc4c(C(=O)N5CCCCC5)ccc(c34)C2=O)cc1OC | inactive: 103%
C=CCn1c(-c2cc(-c3ccccc3)sc2N)n[nH]c1=S | inconclusive: 128%
C=CCNC(=S)NCC | inconclusive: 151%
COc1cc(C(=O)Nc2ccc(-n3cnnn3)c(C)c2)cc(OC)c1OC | active: 28.1%
CCc1ccc(C(=O)NNc2ccc(S(N)(=O)=O)cc2)cc1 | inconclusive: 109%
CCOc1cc(CNCCc2c[nH]c3ccccc23)cc(Cl)c1OCC(N)=O | inconclusive: 149%
COc1cc2c(cc1OC)CN(C(=S)Nc1ccc(Cl)cc1)CC2 | inconclusive: 62.7%
COc1ccc(-c2nn(-c3ccccc3)cc2/C=N/Nc2ccc(Cl)c(C(=O)O)c2)cc1OC | inconclusive: 103%

Another view of three compounds above:
SMILES,binding response (% of control)
COc1cc(C(=O)Nc2ccc(-n3cnnn3)c(C)c2)cc(OC)c1OC,active: 28.1%
CCc1ccc(C(=O)NNc2ccc(S(N)(=O)=O)cc2)cc1,inconclusive: 109%
CCOc1cc(CNCCc2c[nH]c3ccccc23)cc(Cl)c1OCC(N)=O,inconclusive: 149%

(further entries)

SMILES | binding response (% of control)
N=c1ccn(Cc2cccc(F)c2)cc1 | inconclusive: 111%
COc1cc(C(=O)Nc2ccc(N(C)C)cc2)cc(OC)c1OC | inactive: 98%
Cc1cc(=O)oc2cc(OCC(=O)OCC(=O)N(CCC#N)c3ccccc3)ccc12 | inconclusive: 99.6%
O=C(O)CCN1C(=O)c2ccc(NC(=O)C(c3ccccc3)c3ccccc3)cc2C1=O | inconclusive: 100%
Cc1c(C#N)c(O)n(CCO)c(=O)c1N=Nc1ccccc1 | inconclusive: 106%
COc1ccc(Nc2ccccc2N)cc1 | inconclusive: 78%
NNC(=O)c1nn(-c2ccc(Cl)cc2)cc1O | inconclusive: 105%
CCOc1ccc(C2CC(c3cccc(OC)c3)Nc3ncnn32)cc1 (stereo not given) | inactive: 89.4%
CC(C)NC(=O)NC(=O)COC(=O)c1ccc([N+](=O)[O-])cc1Cl | inconclusive: 96.3%
CN(C)S(=O)(=O)c1ccc(N=Cc2c(C(F)(F)F)[nH][nH]c2=O)cc1 | inconclusive: 93.2%
O=C(/C=C/c1ccccc1[N+](=O)[O-])c1ccc(F)cc1 | inconclusive: 103%
CCC(C)(C(=O)NC1CCCCC1)N(C(=O)CNC(=O)c1ccccc1)c1c(C)n(C)n(-c2ccccc2)c1=O (stereo not given) | inactive: 96%
C#CCOCCOCCOCCNc1nc(N2CCN(C(=O)C(Cc3cc4ccccc4[nH]3)n3cc(C(N)C(C)CC)nn3)CC2)nc(N2CCN(C(=O)C(Cc3cc4ccccc4[nH]3)n3cc(C(N)C(C)CC)nn3)CC2)n1 (stereo not given) | inactive: 106%
COc1cc(C(F)(F)F)nc2ccc(C#CCOC(=O)Nc3ccccc3)cc12 | inconclusive: 129%
Cc1ccc(-c2noc(-c3ccno3)n2)cc1 | inconclusive: 149%
O=C(O)C1CCN(c2ccccc2[N+](=O)[O-])CC1 | inconclusive: 97.6%
COc1ccccc1C(=O)N1CCC(N2CCN(c3ccccc3)CC2)CC1 | inconclusive: 86.8%
O=S(=O)(c1ccc(NC(=S)N/N=C/c2cccc(Oc3ccccc3)c2)cc1)N1CCOCC1 | inconclusive: 110%
NS(=O)(=O)c1cc(C(=O)OCC(=O)c2ccc3c(c2)OCCO3)ccc1Cl | active: 179% [activator]
COC(=O)c1ccc2c(c1)N(C)S(=O)(=O)c1cnc(SCC(=O)C(C)(C)C)nc1-2 | inconclusive: 214%
Cn1nc(C(=O)Nc2cccc(S(N)(=O)=O)c2)c2ccccc2c1=O | inconclusive: 56.6%
O=[N+]([O-])c1ccc(N/N=C/c2ccc(O)c(O)c2O)c(S(=O)(=O)N2CCOCC2)c1 | inconclusive: 17.6%
CC(=O)Oc1cccc(N2C(=O)c3ccc(C(=O)Nc4c[nH]c(=O)[nH]c4=O)cc3C2=O)c1 | inactive: 91%

Copied from the list:
For binding response (% of control), COc1ccccc1C(=O)N1CCC(N2CCN(c3ccccc3)CC2)CC1 has the entry inconclusive: 86.8%
For binding response (% of control), CN(C)S(=O)(=O)c1ccc(N=Cc2c(C(F)(F)F)[nH][nH]c2=O)cc1 has the entry inconclusive: 93.2%
For binding response (% of control), CC(=O)Oc1cccc(N2C(=O)c3ccc(C(=O)Nc4c[nH]c(=O)[nH]c4=O)cc3C2=O)c1 has the entry inactive: 91%

(more compounds)

SMILES | binding response (% of control)
CNC(=S)NNC(=O)c1oc2nc(-c3ccccc3)cc(C)c2c1N | inconclusive: 110%
Cc1ccc(-n2c(=O)c(C#N)cc3c(=O)n4cccc(C)c4nc32)cc1 | inactive: 94.7%
CCOC(=O)c1sc(SC)c2c1CCC/C2=N/OC | inconclusive: 82.7%
Cc1nn(C)cc1/C=N/NC(=O)CSc1ccccn1 | inconclusive: 182%
COc1ccc(Br)cc1/C=N/NC(=O)CNC(=O)c1cccnc1 | inconclusive: 105%
O=C(CSc1cccc[n+]1[O-])Nc1c(Br)cc([N+](=O)[O-])cc1Br | inconclusive: 97.3%
CCCn1cc(C(=O)OCC)c(=O)c2cc(F)c(F)cc21 | inconclusive: 99%
COc1cc2c(cc1O)[C@@H]1Cc3cc(O)c(OC)cc3[C@H](C2)N1C | inconclusive: 83.6%
CC(C)(C)OC(=O)N1CCC[C@H]1C(=O)N/N=C/c1cccc2nccnc12 | inconclusive: 37.5%
O=C(COC(=O)c1ccccc1O)Nc1cc([N+](=O)[O-])ccc1Cl | inconclusive: 107%
CNC(=O)/C(C#N)=C/c1cc(C)n(-c2ccc(N3CCOCC3)cc2)c1C | inconclusive: 626%
C#CCOCCOCCOCCNc1nc(N2CCN(C(=O)[C@H](CCC(=O)O)n3cc(C(N)CC(C)C)nn3)CC2)nc(N2CCN(C(=O)[C@H](Cc3ccc(O)cc3)n3cc(C(N)[C@H](C)CC)nn3)CC2)n1 (stereo not given in full) | inactive: 100%
Cc1cccc(/C(N)=N/OC(=O)C23CC4CC(CC(C4)C2)C3)c1 | inactive: 82%
Cc1nn(-c2ccc(Cl)cc2)c(NC(=O)C(C)C)c(-c2ccccc2)c1=O | inconclusive: 118%
Cn1c2ccc(Cl)cc2c2nc3ccccc3nc21 | inactive: 108%
COc1cc(O)ccc1C=O | inconclusive: 109%
CSc1nncc(/C(C)=N/O)n1 | inactive: 97.8%
Cc1ccc(S(=O)(=O)Nc2ccccc2CNC2CCCCC2)cc1 | inconclusive: 90.8%
COc1ccc(/C=N/N2CCOCC2)cc1OCc1ccccc1 | inconclusive: 95.9%
N/C(=N\OC(=O)c1ccc(Cl)cc1Cl)c1ccccc1 | inactive: 101%
O=C(COC(=O)c1cccs1)NCC1CCCCC1 | inconclusive: 99.1%
CC1(c2nnc(-c3ccccc3)o2)CC(c2ccc(F)cc2)=NO1 (stereo not given) | inconclusive: 102%
Cc1ccccc1-n1sc2cc(F)ccc2c1=O | inactive: 104%

SMILES | binding response (% of control)
COc1ccc(CNC(=O)c2cc3c(=O)[nH]c4ccccc4c3n2C)cc1 | inconclusive: 95.6%
NC(=S)Nc1ccc2c(c1)OCO2 | inconclusive: 87.7%
COc1ccc(NC(=O)CC2Nc3cccc4cccc(c34)NC2=O)cc1 (stereo not given) | inconclusive: 73.7%
CC(=O)Nc1ccc2nc(CN3CCC(CO)(CCc4ccccc4)CC3)ccc2c1 | inconclusive: -782%
CC1=CC(=O)C2=C(C)CC[C@@H]3[C@H](OC(=O)[C@H]3C)[C@@H]12 | inconclusive: 112%
Cc1nc(NC(=O)COC(=O)C2=NNC(=O)CC2)c(Cl)cc1Cl | inactive: 97.4%
CNS(=O)(=O)c1cc(Br)ccc1S(=O)c1ccccc1C(=O)O (stereo not given) | inconclusive: 3.13%
CCOC(=O)C1CCN(CCC(=O)Nc2ccc(C)c(C)c2)CC1 | inactive: 108%
COc1cc(/C=C(\C#N)c2nc3ccccc3n2C)cc(OC)c1O | inactive: 100%
CC(=O)N1CCC(=NNc2ccc(S(N)(=O)=O)cc2[N+](=O)[O-])CC1 | inconclusive: 94%
N#Cc1c(N)n(-c2cccc(O)c2)c2nc3ccccc3nc12 | inconclusive: 141%
Cc1cnc(NC(=O)c2sc(Nc3ccccc3)nc2N)o1 | inconclusive: 120%
Nc1ccc(C(CC(=O)O)n2cccc2)cc1 (stereo not given) | active: 38.9%
Cn1cc(C(=O)N/N=C/c2ccc([N+](=O)[O-])cc2)c2ccccc21 | inconclusive: 88.6%
COc1ccc2c(c1)CCc1sc(NC(=O)c3ccco3)nc1-2 | inactive: 99%
CSc1cccc(NC(=S)NN(C)C)c1 | inconclusive: 23.9%
O=C(CNC(=O)c1ccco1)N=Nc1c(O)n(CCc2ccccc2)c2ccccc12 | inconclusive: 81.5%
Fc1cc(Cl)c(OCc2noc(-c3ccsc3)n2)c(Cl)c1 | inconclusive: -161%
Cn1nc(C(F)(F)F)c(-c2ccccc2)c1NC(=O)c1ccco1 | inconclusive: 164%
Cc1nc(N)ncc1Sc1ccccc1 | inconclusive: 133%
CCOC(=O)Nc1c(Cl)n(C)c(=O)n(C)c1=O | inconclusive: 115%
